PubChem BioAssay AID1224828, NIAID, 2016
Here is one part, drawn at random, of about 17,000 deposited reagents. Of all reagents, 762 (4.5%) got an active call. 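Active calls include both raised and lowered p65 entry, mostly lowered; wells with fewer than 50 cells lack a z-score.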 Raw values vary from plate to plate and are shown uncorrected. A number with no mark means an inactive call.

Purpose: 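Find genes required for NF-kappaB p65 moving into the nucleus after LPS in mouse macrophages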 (primary screen)
Cells: mouse RAW264.7 G9 macrophage reporter cells (GFP-p65, Tnf promoter-mCherry)
Reagents: siRNA pool against mouse genes, 100 nM
Duration: 2 days siRNA transfection, then 40 min LPS before fixation
Treatment: LPS (Salmonella minnesota R595) at 10 ng/ml
Read-out: 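Imaged p65 nuclear translocation ratio, normalised to the plate median, converted to robust z-scores and averaged across two replicates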
Scale: p65 translocation robust z-score: higher = more nuclear NF-kappaB p65 after LPS than the plate median; nuclear/cytoplasmic p65 ratio: higher = more nuclear NF-kappaB p65
Active means: 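Active if robust z is above 3.3 (negative regulators) or below -1.56, the Tlr4 control median (positive regulators); activity score 50 or more; control wells not called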
Calls: active = hit (p65 shift raised or lowered); inactive = no clear change

Gpr22 (G protein-coupled receptor 22) showed p65 translocation robust z-score -1.56; nuclear/cytoplasmic p65 ratio, rep 1 = 1.3; nuclear/cytoplasmic p65 ratio, rep 2 = 1.36; low cell count flag enough cells to score.
Knock-down of Tshz3 (teashirt zinc finger family member 3) resulted in: p65 translocation robust z-score -1.38; nuclear/cytoplasmic p65 ratio, rep 1 = 1.24; nuclear/cytoplasmic p65 ratio, rep 2 = 1.08; low cell count flag enough cells to score.
Depletion of Or9k2 (olfactory receptor family 9 subfamily K member 2) gave: nuclear/cytoplasmic p65 ratio, rep 1 = 1.55; nuclear/cytoplasmic p65 ratio, rep 2 = 1.44; low cell count flag fewer than 50 cells per well; well left out of scoring.
Abcd1 (ATP-binding cassette, sub-family D member 1) gave p65 translocation robust z-score 0.11; nuclear/cytoplasmic p65 ratio, rep 1 = 1.63; nuclear/cytoplasmic p65 ratio, rep 2 = 1.62; low cell count flag enough cells to score.
Hars2 (histidyl-tRNA synthetase 2) gave p65 translocation robust z-score 0.57; nuclear/cytoplasmic p65 ratio, rep 1 = 1.67; nuclear/cytoplasmic p65 ratio, rep 2 = 1.68; low cell count flag enough cells to score.
Depletion of 5031434C07Rik (RIKEN cDNA 5031434C07 gene) gave: p65 translocation robust z-score -0.7; nuclear/cytoplasmic p65 ratio, rep 1 = 1.27; nuclear/cytoplasmic p65 ratio, rep 2 = 1.28; low cell count flag enough cells to score.
For Irf2bpl (interferon regulatory factor 2 binding protein-like), the entry reads p65 translocation robust z-score 2.85; nuclear/cytoplasmic p65 ratio, rep 1 = 1.68; nuclear/cytoplasmic p65 ratio, rep 2 = 1.89; low cell count flag enough cells to score.
Niban1 (niban apoptosis regulator 1) scored p65 translocation robust z-score -0.08; nuclear/cytoplasmic p65 ratio, rep 1 = 1.68; nuclear/cytoplasmic p65 ratio, rep 2 = 1.54; low cell count flag enough cells to score.
For Vmn1r193 (vomeronasal 1 receptor 193), the values are p65 translocation robust z-score 1.13; nuclear/cytoplasmic p65 ratio, rep 1 = 1.53; nuclear/cytoplasmic p65 ratio, rep 2 = 1.36; low cell count flag enough cells to score.
Silencing of Cyp2c37 (cytochrome P450, family 2. subfamily c, polypeptide 37) came out at: p65 translocation robust z-score -1.44; nuclear/cytoplasmic p65 ratio, rep 1 = 1.3; nuclear/cytoplasmic p65 ratio, rep 2 = 1.17; low cell count flag enough cells to score.
For Zswim9 (zinc finger SWIM-type containing 9) the deposit lists p65 translocation robust z-score -0.23; nuclear/cytoplasmic p65 ratio, rep 1 = 1.33; nuclear/cytoplasmic p65 ratio, rep 2 = 1.29; low cell count flag enough cells to score.
Depletion of Apbb3 (amyloid beta precursor protein binding family B member 3) gave: p65 translocation robust z-score 0.09; nuclear/cytoplasmic p65 ratio, rep 1 = 1.64; nuclear/cytoplasmic p65 ratio, rep 2 = 1.62; low cell count flag enough cells to score.
Depletion of Ube2q2 (ubiquitin-conjugating enzyme E2Q family member 2) gave: nuclear/cytoplasmic p65 ratio, rep 1 = 1.39; nuclear/cytoplasmic p65 ratio, rep 2 = 1.05; low cell count flag fewer than 50 cells per well; well left out of scoring.
Ttc27 (tetratricopeptide repeat domain 27) gave p65 translocation robust z-score 0.84; nuclear/cytoplasmic p65 ratio, rep 1 = 1.54; nuclear/cytoplasmic p65 ratio, rep 2 = 1.55; low cell count flag enough cells to score.
Depletion of Eeig1 (estrogen-induced osteoclastogenesis regulator 1) came out at: nuclear/cytoplasmic p65 ratio, rep 1 = 1.39; nuclear/cytoplasmic p65 ratio, rep 2 = 1.55; low cell count flag fewer than 50 cells per well; well left out of scoring.
Or8b47 (olfactory receptor family 8 subfamily B member 47) showed nuclear/cytoplasmic p65 ratio, rep 1 = 1.37; nuclear/cytoplasmic p65 ratio, rep 2 = 1.35; low cell count flag fewer than 50 cells per well; well left out of scoring.
Pex5 (peroxisomal biogenesis factor 5) gave p65 translocation robust z-score 0.92; nuclear/cytoplasmic p65 ratio, rep 1 = 1.54; nuclear/cytoplasmic p65 ratio, rep 2 = 1.56; low cell count flag enough cells to score.
Against Aicda (activation-induced cytidine deaminase), the entry reads p65 translocation robust z-score 1.04; nuclear/cytoplasmic p65 ratio, rep 1 = 1.65; nuclear/cytoplasmic p65 ratio, rep 2 = 1.89; low cell count flag enough cells to score.
Gml2 (glycosylphosphatidylinositol anchored molecule like 2) scored p65 translocation robust z-score -0.29; nuclear/cytoplasmic p65 ratio, rep 1 = 1.27; nuclear/cytoplasmic p65 ratio, rep 2 = 1.52; low cell count flag enough cells to score.
Depletion of Efnb1 (ephrin B1) came out at: p65 translocation robust z-score -1.18; nuclear/cytoplasmic p65 ratio, rep 1 = 1.31; nuclear/cytoplasmic p65 ratio, rep 2 = 1.21; low cell count flag enough cells to score.
With knock-down of Itih3 (inter-alpha trypsin inhibitor, heavy chain 3) the results were p65 translocation robust z-score -0.78; nuclear/cytoplasmic p65 ratio, rep 1 = 1.4; nuclear/cytoplasmic p65 ratio, rep 2 = 1.36; low cell count flag enough cells to score.
Atl1 (atlastin GTPase 1) scored p65 translocation robust z-score -0.44; nuclear/cytoplasmic p65 ratio, rep 1 = 1.54; nuclear/cytoplasmic p65 ratio, rep 2 = 1.44; low cell count flag enough cells to score.
After knock-down of Vmn1r53 (vomeronasal 1 receptor 53) the results were p65 translocation robust z-score -0.19; nuclear/cytoplasmic p65 ratio, rep 1 = 1.37; nuclear/cytoplasmic p65 ratio, rep 2 = 1.26; low cell count flag enough cells to score.
After knock-down of Meak7 (MTOR associated protein, eak-7 homolog), the record shows p65 translocation robust z-score -0.69; nuclear/cytoplasmic p65 ratio, rep 1 = 1.47; nuclear/cytoplasmic p65 ratio, rep 2 = 1.55; low cell count flag enough cells to score.
With knock-down of Trim47 (tripartite motif-containing 47) the results were p65 translocation robust z-score 3.31 (active); nuclear/cytoplasmic p65 ratio, rep 1 = 1.87; nuclear/cytoplasmic p65 ratio, rep 2 = 1.56; low cell count flag enough cells to score.
Against Tnpo1 (transportin 1), the values are p65 translocation robust z-score 0.05; nuclear/cytoplasmic p65 ratio, rep 1 = 1.52; nuclear/cytoplasmic p65 ratio, rep 2 = 1.53; low cell count flag enough cells to score.
After knock-down of Cd5 (CD5 antigen), the screen gave p65 translocation robust z-score -0.39; nuclear/cytoplasmic p65 ratio, rep 1 = 1.43; nuclear/cytoplasmic p65 ratio, rep 2 = 1.31; low cell count flag enough cells to score.
